Measurements as given in US20030224403A1 (priority 2002, published 2003).
For at least one compound, name, drawing or mass did not settle the structure. Some entries share one result that the patent states for a list of compounds. Residues, ends and D or L forms follow the SMILES beside them. *: point of attachment. Cbz = O=C(OCc1ccccc1)*; CH2F = FC*

Test system: B. anthracis spores
Settings: in vivo; for mice alive after 6 days: ip

| Compound | mice alive after 6 days [%] | survival of mice |
| --- | --- | --- |
| COC(=O)C[C@H](NC(=O)[C@H](C)NC(=O)[C@@H](NC(=O)OCc1ccccc1)C(C)C)C(=O)CF [Z-VAD-fmk, benzyloxycarbonyl-Val-Ala-Asp-fluoromethylketone] (Cbz-Val-Ala-Asp(OMe)-CH2F) | ≤ 50 | – |
| C[C@H]1c2cccc(O)c2C(=O)C2=C(O)[C@]3(O)C(=O)C(C(N)=O)=C(O)[C@@H](N(C)C)[C@@H]3[C@@H](O)[C@@H]21 [doxycycline] | – | dead by 11 days |
| CC(C)C[C@H](NC(=O)[C@@H](O)[C@H](N)Cc1ccccc1)C(=O)O [bestatin] | ≤ 50 | – |
